Structures are written as SMILES. Counter-ions that a name gives are not always drawn. Some of the results follow. Many values rest on one well or one pass, so single values are uncertain.

The assay relates to patient-derived ovarian cancer cells (PDC). As to the kind of experiment: cell growth inhibition ratio vs untreated control (CCK8); higher = stronger inhibition of cell viability. Particulars: 10 µM; 48 h. The method, then: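 Natural product library (Topscience) screened at 10 µM final concentration for 48 h on ovarian cancer A2780 cells and patient-derived ovarian cancer cells (PDC) in 96-well plates; viability read by CCK8 and reported as inhibition ratio (%) relative to untreated control. Single-dose primary screen.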
As for `CN(C)[C@@H]1C(=O)C(C(N)=O)=C(O)[C@@]2(O)C(=O)C3=C(O)c4c(O)cccc4[C@@](C)(O)[C@H]3C[C@@H]12` [Tetracycline hydrochloride], the “cell growth inhibition ratio” value is -10.3%.

Take `CC[C@]12C=CCN3CC[C@]4(C(=C(C(=O)OC)C1)Nc1ccccc14)[C@@H]32` [Tabersonine]: the “cell growth inhibition ratio” value stood at 9.29%.

Take `CCN1C[C@]2(OC(=O)c3ccccc3NC(C)=O)CC[C@H](OC)[C@@]34[C@@H]2C[C@@H]([C@@H]13)[C@@]1(O)C[C@H](OC)[C@H]2C[C@@H]4[C@]1(O)[C@H]2OC` [Lappaconitine]: the “cell growth inhibition ratio” value was -21.7%.

Take `C[C@H]1C(=O)O[C@@H]2CCN3CC=C(COC(=O)[C@](C)(O)[C@]1(C)O)[C@H]23` [Monocrotaline]: the “cell growth inhibition ratio” value is -14.3%.

Turning to `CCC1=C[C@@H]2CN3CCc4c([nH]c5ccccc45)[C@@](C(=O)OC)(C2)[C@@H]13` [Catharanthine tartrate], the “cell growth inhibition ratio” value is -0.0387%.

On to `COc1cccc2c1cc([N+](=O)[O-])c1c(C(=O)O)cc3c(c12)OCO3` [Aristolochic Acid], for which the “cell growth inhibition ratio” value was 70.4%.

The record behind these values is the supplement of paper PMC10373366.
